Reference: publication PMC5415356
Numbering of substitutions follows the chain as printed. No constants are given. Whether binding was seen depends on the method and setting. Binding seen in cells or lysates may run through a third protein. Some entries that bind do so weakly or less than the wild type. Where a sequence is shown, tags or fusion partners need not be part of it.

Chains of the proteins cited; added tags and fusions are not shown.
UniProt P46937: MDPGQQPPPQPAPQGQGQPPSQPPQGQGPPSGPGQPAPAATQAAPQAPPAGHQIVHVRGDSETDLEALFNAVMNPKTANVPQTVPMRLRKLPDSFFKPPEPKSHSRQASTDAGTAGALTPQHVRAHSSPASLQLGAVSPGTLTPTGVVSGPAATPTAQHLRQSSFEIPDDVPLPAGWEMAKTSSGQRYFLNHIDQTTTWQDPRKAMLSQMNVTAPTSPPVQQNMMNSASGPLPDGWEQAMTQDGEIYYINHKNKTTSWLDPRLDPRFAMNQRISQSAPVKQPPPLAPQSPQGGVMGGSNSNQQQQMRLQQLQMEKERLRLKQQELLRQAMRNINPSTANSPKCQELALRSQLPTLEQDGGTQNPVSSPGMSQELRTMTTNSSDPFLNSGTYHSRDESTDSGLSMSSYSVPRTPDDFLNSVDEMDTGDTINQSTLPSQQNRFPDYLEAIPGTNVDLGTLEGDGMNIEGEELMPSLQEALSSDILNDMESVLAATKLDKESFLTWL

Legend:
[1] = target: T1, HA-Amot-p130 (mouse (by the paper's numbering: Ser176 in mouse, Ser175 in human)) (UniProt Q8VHG2); experiment: co-IP; HepG2 cells co-transfected with YAP and an Amot allele, fractionated into cytoplasmic, nuclear and plasma membrane fractions; Amot IP of each fraction, anti-YAP immunoblot
T1 sequence: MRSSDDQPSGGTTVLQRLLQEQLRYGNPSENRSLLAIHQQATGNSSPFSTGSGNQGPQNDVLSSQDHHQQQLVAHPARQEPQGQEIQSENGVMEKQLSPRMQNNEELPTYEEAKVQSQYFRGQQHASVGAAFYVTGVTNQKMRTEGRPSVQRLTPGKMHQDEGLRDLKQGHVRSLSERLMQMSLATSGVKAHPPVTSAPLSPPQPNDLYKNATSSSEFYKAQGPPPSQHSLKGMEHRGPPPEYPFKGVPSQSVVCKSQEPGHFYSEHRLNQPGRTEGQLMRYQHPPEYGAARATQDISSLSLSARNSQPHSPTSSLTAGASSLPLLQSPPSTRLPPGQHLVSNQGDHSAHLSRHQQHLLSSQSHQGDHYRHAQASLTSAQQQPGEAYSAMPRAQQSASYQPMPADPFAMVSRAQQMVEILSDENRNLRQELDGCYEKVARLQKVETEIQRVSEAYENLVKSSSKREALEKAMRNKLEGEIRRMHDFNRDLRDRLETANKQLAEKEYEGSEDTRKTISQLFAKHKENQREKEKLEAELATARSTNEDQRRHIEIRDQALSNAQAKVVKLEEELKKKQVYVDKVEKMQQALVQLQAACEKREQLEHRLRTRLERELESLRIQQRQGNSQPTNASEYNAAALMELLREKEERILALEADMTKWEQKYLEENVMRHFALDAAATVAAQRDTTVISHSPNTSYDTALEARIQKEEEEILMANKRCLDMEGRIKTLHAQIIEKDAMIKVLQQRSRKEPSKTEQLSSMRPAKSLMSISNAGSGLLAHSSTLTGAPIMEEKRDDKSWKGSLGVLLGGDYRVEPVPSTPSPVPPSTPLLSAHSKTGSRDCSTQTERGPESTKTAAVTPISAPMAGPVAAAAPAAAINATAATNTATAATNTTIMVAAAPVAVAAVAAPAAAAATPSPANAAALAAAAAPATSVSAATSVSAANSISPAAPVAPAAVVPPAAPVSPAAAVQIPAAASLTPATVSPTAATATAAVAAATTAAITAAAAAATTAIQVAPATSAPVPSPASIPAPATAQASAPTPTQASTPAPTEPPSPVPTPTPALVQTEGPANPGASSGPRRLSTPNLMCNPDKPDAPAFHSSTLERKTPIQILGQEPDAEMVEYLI

[2] = target: T2, HA-Amot-p130^S176E (mouse (by the paper's numbering: Ser176 in mouse, Ser175 in human)) (UniProt Q8VHG2); experiment: as above
T2 sequence: T1 sequence with S176E

[3] = target: T1, HA-Amot-p130 (mouse (by the paper's numbering: Ser176 in mouse, Ser175 in human)); experiment: co-IP; hSC2λ cells co-transfected with YAP and an Amot allele, fractionated into cytoplasmic, nuclear and plasma membrane fractions; Amot IP of each fraction, anti-YAP immunoblot
[4] = target: T2, HA-Amot-p130^S176E (mouse (by the paper's numbering: Ser176 in mouse, Ser175 in human)); experiment: as above

Measured: binding

V5-tagged YAP (from UniProt P46937 1-504)
binds: all assays above
